Here are results for three compounds from PMC10564737, “Structure-based design of a phosphotyrosine-masked covalent ligand targeting the E3 ligase SOCS2” (Nature Communications, 2023).

Protein sequences, listed by entry. Tags and fused reporters are not part of them. Residues count along the entry.
UniProt O14508, 32-198: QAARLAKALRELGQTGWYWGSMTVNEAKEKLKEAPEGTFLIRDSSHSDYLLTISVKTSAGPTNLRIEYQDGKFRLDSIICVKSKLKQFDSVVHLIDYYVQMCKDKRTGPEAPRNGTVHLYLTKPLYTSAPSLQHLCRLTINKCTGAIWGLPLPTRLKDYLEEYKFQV

For the assay, the target named is T1, HiBiT-SOCS2 fusion in HeLa cells (Homo sapiens, UniProt O14508).
T1 construct: encoding SOCS2 (32–198) in pBiT3.1-N expression vector; expressed in transfected cells; host or cells: HeLa
In words: Split-NanoLuc CETSA, live-cell mode. Format: cell-based. Details: reference not given here. Particulars: 50uM 20hrs. On the procedure: One of the challenges with small-molecule binders displaying on-target activity with recombinant proteins, is to translate their utility to a cellular context. […] One of the advantages of CETSA is that target engagement can be monitored without the need for the development of a cell-permeable tracer molecule.
We utilized CETSA in a live-cell mode to evaluate the efficacy and rank the different prodrugs. We treated live HeLa cells with 50 μM compound (prodrugs) for 20 h and monitored Tagg shift as a proxy for the combo of prodrug permeability and unmasking (Fig. 4d). […] The observation could be because the POM group unmasking requires only esterase unlike the reliance of compounds 21–23 on esterase and phosphoramidase for unmasking an aryloxy phosphoramidate group.
N-terminal HiBiT-SOCS2 fusion was generated by encoding SOCS2 (32–198) in pBiT3.1-N expression vector (Promega). The transfection and target engagement assay were performed by modifying a NanoLuc target engagement protocol (Promega) with some small modifications. Briefly, HiBiT-SOCS2 fusion construct was transfected into HeLa cells using FuGENE HD (Promega) according to the manufacturer’s protocol. HiBiT-SOCS2 fusion construct was diluted into Transfection Carrier DNA (Promega) at a mass ratio of 1:100 or 1:10 for permeabilised and live-cell CETSA respectively. FuGENE HD was added at a ratio of 1:3 (μg DNA: μL FuGENE HD). 1 part (vol) of FuGENE HD complexes thus formed were combined with 20 parts (vol) of HeLa cells suspended at a density of 2 × 10^5 cells/mL, followed by incubation in a humidified, 37 °C + 5% CO2 incubator. After 20 h of incubation HeLa cells were detached and resuspended at a density of 2.5 × 10^5 cells/mL in Opti-MEM media without serum or phenol red but supplemented with protease inhibitor cocktail (Roche). Compounds stocks were added to cell suspension to maintain a final DMSO concentration of 1%. For the permeabilised assay format, 96-well PCR plates (Thermo) were pre-treated with digitonin to have a final well concentration of 50 μg/ml. 50 μl Opti-MEM cell suspension was then aliquoted to each well of the 96-well plate. The plates are then covered with microporous tape sheet (Qiagen) prior to incubation in a humidified, 37 °C + 5% CO2 incubator. Post-incubation we heat the PCR plates in 16-point temperature (split across two runs) curve spanning degrees 40-72 °C temperature span (CFX96 Touch Real-Time PCR Detection System, BioRad). The thermal cycler block was allowed to rise to the designated temperatures prior to placement of the PCR plates into the heating block and heat treatment for 3 min. After incubating the plates at room temperature for over 3 min, 50 μl of the Nano-Glo HiBiT Lytic mix (Promega) was added to each well. Samples were mixed by pipetting and placing the plate on an orbital shaker (600 rpm) for 5 min. 20 μl of the samples (in triplicates) were transferred to a AlphaPlate-384 plate (Perkin Elmer). Luminescence was recorded with GloMax Discover Microplate Reader (Promega). To generate apparent Tagg curves, the data is first converted to percent stabilized by relating the observed luminescence to the luminescence of the lowest temperature (40 °C) for that given sample. Data are then fitted to obtain apparent Tagg values using the Boltzmann Sigmoid equation using Graphpad Prism 9.

Where [1] appears, read: n=1, temperature point 3 of 16, temperature not given.
The mark [2] stands for this setting: n=1, temperature point 1 of 16, temperature not given.

The structures appear in SMILES notation. Several values for one entry are separate records, joined by “and”; a condition that tells them apart may be missing. Equal values may be shown once. The source gives many values for each of these; only a part stands here.

Consider `COC(=O)[C@H](C)NP(=O)(Oc1ccc(C[C@H](NC(=O)Cc2ccc(F)cc2)C(=O)NCc2cccc(NC(=O)CCl)c2)cc1)Oc1cccc2ccccc12` (stereo partly drawn) [Compound 21], for which the “Produrg CETSA screening, raw signal” value reads like this: under setting [1], 113448 and 102913 and 181659; (n=3, Temp, 0C 40) 106265 and 112198 and 119294; (n=3, Temp, 0C 40.9) 109899 and 115055 and 121931; (n=3, Temp, 0C 42.9) 83334 and 80184 and 93040; (n=3, Temp, 0C 45.8) 77608 and 87638 and 92665; (n=3, Temp, 0C 49.5) 73082 and 84063 and 89829. For the same compound, the “Produrg CETSA screening, raw signal” value (n=3, Temp, 0C 52.4) was 57034 and 65098 and 70354; the “Produrg CETSA screening, raw signal” value (n=3, Temp, 0C 54.1) is 44561 and 51273 and 64464; the “Produrg CETSA screening, raw signal” value (n=3, Temp, 0C 55) is 39974 and 47326 and 53401; the “Produrg CETSA screening, raw signal” value (n=3, Temp, 0C 56) was 39696 and 43402 and 52325; the “Produrg CETSA screening, raw signal” value (n=3, Temp, 0C 57.1) is 32038 and 42241 and 42528; the “Produrg CETSA screening, raw signal” value (n=3, Temp, 0C 59.2) was 21321 and 29927 and 36357. The “Produrg CETSA screening, raw signal” value (n=3, Temp, 0C 62.3) was 21596 and 23870.
For the compound `C[C@H](NP(=O)(Oc1ccc(C[C@H](NC(=O)Cc2ccc(F)cc2)C(=O)NCc2cccc(NC(=O)CCl)c2)cc1)Oc1cccc2ccccc12)C(=O)OCc1ccccc1` (stereo partly drawn) [Compound 23], the “Produrg CETSA screening, raw signal” value was 96179 and 66691 and 106678 under setting [2]; 75665 and 76023 and 87987 under setting [1]; 86109 and 99917 and 106945 (n=3, Temp, 0C 40); 90562 and 92623 and 105820 (n=3, Temp, 0C 40.9); 78371 and 90666 and 96745 (n=3, Temp, 0C 42.9); 73987 and 84265 and 91160 (n=3, Temp, 0C 45.8). Further, the “Produrg CETSA screening, raw signal” value (n=3, Temp, 0C 49.5) is 110287 and 116224 and 134122; the “Produrg CETSA screening, raw signal” value (n=3, Temp, 0C 52.4) is 83129 and 87051 and 111961; the “Produrg CETSA screening, raw signal” value (n=3, Temp, 0C 54.1) was 50256 and 61162.
`CC(C)(C)C(=O)OCOP(=O)(OCOC(=O)C(C)(C)C)Oc1ccc(C[C@H](NC(=O)Cc2ccc(F)cc2)C(=O)NCc2cccc(NC(=O)CCl)c2)cc1` [MN714]: the “Produrg CETSA screening, raw signal” value by setting is: under setting [2], 67270 and 84567 and 117559; under setting [1], 84153 and 150620 and 140451; (n=3, Temp, 0C 40) 98813 and 108173 and 115696; (n=3, Temp, 0C 40.9) 99191 and 104307 and 114654; (n=3, Temp, 0C 42.9) 98886 and 104736 and 111342; (n=3, Temp, 0C 45.8) 90351 and 101251 and 104167. Moreover, the “Produrg CETSA screening, raw signal” value (n=3, Temp, 0C 49.5) was 95789 and 104273 and 111701; the “Produrg CETSA screening, raw signal” value (n=3, Temp, 0C 52.4) is 78114 and 87832 and 90131; the “Produrg CETSA screening, raw signal” value (n=3, Temp, 0C 54.1) is 62485 and 66465 and 74792; the “Produrg CETSA screening, raw signal” value (n=3, Temp, 0C 55) was 57897 and 63846 and 70409; the “Produrg CETSA screening, raw signal” value (n=3, Temp, 0C 56) is 65003 and 70712 and 71358; the “Produrg CETSA screening, raw signal” value (n=3, Temp, 0C 57.1) was 50965 and 55773 and 64572. Moreover, the “Produrg CETSA screening, raw signal” value (n=3, Temp, 0C 59.2) was 33517 and 39387 and 42632; the “Produrg CETSA screening, raw signal” value (n=3, Temp, 0C 62.3) is 20563 and 19784.
